Reference: the supplement of paper PMC12823440, “Inhibitors supercharge kinase turnover through native proteolytic circuits” (Nature, 2025)
Counter-ions that a name gives are not always drawn. Some of the results follow. Hit calls seldom repeat between salt and free forms of one compound.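 Kinases were expressed as nanoluciferase fusions in K562 cells and luminescence was read every 4 h between 2 and 18 h as percent of control, DMSO set to 100% and a positive control to 0%. A time point counts as decreased when the signal drops significantly (2 sigma). The hit call is the authors' own, does not follow from the count of time points alone, and its rule is not shown.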

Sequences of proteins named here, by UniProt entry; tags and fusion partners are left off. A change or cut given only in a name is not applied to a line headed by its entry.
UniProt Q9UM73: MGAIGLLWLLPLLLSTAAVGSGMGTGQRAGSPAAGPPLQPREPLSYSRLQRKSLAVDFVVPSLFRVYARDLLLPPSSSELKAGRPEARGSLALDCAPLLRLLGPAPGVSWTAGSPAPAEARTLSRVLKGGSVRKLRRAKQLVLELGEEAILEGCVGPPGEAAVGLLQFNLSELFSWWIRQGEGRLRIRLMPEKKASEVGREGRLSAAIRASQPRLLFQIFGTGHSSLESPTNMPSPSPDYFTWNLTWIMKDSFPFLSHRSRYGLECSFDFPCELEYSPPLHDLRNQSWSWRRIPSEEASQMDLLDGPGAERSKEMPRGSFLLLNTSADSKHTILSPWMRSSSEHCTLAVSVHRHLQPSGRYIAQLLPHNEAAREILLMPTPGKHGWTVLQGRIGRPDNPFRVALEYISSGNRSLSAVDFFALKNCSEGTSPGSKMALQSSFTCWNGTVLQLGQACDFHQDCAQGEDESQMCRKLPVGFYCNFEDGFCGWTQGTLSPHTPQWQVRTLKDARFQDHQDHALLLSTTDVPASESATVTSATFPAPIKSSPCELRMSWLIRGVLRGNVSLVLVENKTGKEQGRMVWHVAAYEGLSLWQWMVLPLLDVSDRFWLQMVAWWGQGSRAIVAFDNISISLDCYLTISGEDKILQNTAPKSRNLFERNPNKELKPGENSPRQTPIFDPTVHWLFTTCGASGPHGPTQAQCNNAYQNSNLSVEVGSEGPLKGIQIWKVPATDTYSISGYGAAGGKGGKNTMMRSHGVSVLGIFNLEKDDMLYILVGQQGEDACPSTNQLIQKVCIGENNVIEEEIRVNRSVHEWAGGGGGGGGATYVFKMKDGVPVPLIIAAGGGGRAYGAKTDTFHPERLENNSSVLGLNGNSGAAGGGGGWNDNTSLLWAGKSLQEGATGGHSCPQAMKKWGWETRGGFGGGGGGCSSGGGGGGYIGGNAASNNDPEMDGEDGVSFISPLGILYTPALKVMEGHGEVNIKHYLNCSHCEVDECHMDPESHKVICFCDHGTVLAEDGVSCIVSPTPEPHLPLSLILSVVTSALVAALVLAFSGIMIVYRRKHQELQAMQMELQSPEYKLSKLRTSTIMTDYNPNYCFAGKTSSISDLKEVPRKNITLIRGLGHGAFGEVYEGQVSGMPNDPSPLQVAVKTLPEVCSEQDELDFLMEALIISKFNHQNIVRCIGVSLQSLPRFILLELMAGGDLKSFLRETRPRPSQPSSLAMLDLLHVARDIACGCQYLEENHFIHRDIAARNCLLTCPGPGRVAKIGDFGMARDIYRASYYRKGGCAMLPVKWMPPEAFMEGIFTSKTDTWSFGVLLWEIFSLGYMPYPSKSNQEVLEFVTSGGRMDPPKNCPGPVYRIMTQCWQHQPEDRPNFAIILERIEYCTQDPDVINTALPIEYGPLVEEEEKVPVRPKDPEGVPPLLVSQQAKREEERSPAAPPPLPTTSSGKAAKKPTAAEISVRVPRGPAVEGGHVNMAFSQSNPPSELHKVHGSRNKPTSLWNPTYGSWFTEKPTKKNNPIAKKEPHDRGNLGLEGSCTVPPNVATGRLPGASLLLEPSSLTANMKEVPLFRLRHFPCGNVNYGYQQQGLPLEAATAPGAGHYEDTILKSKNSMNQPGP
UniProt P10398: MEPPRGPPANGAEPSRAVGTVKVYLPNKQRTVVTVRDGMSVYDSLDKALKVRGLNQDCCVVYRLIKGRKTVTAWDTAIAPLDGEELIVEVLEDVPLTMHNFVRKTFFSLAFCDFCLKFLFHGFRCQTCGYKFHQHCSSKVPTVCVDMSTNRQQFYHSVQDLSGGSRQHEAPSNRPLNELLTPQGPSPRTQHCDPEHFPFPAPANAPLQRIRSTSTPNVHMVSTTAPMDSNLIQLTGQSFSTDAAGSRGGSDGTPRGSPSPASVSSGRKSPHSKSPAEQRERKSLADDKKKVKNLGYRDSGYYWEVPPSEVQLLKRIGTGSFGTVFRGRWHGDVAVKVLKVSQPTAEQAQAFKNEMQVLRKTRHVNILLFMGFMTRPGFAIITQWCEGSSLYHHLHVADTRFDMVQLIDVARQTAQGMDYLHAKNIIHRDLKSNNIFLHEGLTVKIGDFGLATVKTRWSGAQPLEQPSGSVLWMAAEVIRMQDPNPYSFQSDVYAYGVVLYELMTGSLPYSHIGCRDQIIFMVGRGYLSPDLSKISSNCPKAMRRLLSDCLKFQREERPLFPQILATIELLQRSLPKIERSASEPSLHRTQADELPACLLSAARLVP
UniProt Q96GD4, whole entry: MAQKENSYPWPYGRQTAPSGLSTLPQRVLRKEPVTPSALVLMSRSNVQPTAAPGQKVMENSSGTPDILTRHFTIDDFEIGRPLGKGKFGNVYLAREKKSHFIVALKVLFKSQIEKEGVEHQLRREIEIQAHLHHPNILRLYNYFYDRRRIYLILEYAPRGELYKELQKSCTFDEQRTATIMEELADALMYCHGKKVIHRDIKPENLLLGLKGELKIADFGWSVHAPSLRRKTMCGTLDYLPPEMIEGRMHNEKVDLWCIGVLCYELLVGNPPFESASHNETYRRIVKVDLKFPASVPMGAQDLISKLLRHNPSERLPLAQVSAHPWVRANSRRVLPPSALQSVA
UniProt P51451: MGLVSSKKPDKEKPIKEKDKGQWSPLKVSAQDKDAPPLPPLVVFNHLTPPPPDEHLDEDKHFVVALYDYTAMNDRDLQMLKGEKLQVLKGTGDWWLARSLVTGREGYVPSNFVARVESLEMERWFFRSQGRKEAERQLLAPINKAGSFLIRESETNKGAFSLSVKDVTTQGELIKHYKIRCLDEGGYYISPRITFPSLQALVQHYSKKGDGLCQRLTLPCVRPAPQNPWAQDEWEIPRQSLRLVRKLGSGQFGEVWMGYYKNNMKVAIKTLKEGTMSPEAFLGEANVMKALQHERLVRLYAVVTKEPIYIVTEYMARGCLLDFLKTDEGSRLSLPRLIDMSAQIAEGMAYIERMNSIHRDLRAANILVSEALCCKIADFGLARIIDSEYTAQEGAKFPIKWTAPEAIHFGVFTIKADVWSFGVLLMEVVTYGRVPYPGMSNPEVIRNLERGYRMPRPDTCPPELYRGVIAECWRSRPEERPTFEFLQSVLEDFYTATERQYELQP
UniProt P15056, whole entry, looked up: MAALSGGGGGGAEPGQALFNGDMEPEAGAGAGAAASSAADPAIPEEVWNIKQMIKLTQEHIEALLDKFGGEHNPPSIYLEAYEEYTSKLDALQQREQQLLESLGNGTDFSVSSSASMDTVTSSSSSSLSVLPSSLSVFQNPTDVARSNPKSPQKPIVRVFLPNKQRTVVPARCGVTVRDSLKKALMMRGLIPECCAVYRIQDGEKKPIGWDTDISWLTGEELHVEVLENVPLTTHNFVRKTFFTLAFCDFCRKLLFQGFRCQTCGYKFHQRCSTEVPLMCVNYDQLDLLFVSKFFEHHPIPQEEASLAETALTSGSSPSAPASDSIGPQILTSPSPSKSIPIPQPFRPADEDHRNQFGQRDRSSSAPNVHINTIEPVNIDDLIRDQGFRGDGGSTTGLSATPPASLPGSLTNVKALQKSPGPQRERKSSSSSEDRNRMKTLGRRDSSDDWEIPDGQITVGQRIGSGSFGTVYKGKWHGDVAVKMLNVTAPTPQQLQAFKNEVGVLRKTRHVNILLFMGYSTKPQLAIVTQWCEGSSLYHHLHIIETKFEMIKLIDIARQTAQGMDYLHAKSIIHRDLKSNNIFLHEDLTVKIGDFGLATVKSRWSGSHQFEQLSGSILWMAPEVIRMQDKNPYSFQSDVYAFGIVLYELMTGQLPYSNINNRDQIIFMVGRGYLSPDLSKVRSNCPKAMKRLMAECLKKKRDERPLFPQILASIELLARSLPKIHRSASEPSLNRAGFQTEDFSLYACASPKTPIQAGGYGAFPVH
UniProt Q06187: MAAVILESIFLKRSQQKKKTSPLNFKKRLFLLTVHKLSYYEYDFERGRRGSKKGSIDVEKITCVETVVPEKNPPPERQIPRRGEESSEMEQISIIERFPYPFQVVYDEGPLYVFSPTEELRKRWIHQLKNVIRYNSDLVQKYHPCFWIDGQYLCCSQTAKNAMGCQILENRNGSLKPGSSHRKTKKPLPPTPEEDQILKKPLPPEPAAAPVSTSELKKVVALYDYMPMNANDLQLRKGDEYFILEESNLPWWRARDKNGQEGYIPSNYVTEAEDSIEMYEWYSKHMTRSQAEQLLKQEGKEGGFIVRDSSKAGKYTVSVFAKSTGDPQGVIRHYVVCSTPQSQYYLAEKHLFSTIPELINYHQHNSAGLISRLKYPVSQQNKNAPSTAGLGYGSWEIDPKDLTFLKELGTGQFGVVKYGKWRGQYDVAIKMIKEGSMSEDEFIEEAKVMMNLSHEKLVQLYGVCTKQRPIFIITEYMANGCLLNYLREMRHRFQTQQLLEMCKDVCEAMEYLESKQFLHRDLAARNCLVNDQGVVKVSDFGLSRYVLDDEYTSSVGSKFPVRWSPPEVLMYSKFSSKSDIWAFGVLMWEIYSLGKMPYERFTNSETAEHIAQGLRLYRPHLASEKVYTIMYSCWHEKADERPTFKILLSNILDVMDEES
UniProt Q15131: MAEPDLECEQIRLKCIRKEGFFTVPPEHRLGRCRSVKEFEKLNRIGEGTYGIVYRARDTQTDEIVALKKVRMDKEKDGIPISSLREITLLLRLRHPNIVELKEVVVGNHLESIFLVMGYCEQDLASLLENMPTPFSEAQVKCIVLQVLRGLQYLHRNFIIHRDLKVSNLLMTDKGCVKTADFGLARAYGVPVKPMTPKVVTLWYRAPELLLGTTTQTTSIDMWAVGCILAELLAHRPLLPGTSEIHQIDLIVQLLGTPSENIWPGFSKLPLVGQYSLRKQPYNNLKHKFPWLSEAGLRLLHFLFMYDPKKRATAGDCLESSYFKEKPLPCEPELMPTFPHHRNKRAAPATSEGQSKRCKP
UniProt Q00526: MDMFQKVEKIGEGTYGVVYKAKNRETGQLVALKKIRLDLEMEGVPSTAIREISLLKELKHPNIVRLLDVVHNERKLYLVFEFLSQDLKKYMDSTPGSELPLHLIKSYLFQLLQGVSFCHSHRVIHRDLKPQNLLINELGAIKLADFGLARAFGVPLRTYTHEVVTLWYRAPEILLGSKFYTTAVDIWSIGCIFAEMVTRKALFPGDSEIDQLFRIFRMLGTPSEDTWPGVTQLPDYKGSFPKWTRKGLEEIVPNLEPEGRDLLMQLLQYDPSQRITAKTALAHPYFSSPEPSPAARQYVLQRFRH
UniProt Q00534, whole entry: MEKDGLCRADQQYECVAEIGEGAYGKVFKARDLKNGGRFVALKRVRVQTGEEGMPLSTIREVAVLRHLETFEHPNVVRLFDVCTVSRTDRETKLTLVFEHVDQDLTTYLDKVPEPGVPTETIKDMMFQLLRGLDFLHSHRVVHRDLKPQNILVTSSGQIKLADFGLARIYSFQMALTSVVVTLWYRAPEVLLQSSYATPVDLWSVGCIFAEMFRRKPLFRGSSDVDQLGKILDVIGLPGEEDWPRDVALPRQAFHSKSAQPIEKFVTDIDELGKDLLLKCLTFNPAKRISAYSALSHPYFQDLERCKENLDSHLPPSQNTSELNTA
UniProt O96017, whole entry: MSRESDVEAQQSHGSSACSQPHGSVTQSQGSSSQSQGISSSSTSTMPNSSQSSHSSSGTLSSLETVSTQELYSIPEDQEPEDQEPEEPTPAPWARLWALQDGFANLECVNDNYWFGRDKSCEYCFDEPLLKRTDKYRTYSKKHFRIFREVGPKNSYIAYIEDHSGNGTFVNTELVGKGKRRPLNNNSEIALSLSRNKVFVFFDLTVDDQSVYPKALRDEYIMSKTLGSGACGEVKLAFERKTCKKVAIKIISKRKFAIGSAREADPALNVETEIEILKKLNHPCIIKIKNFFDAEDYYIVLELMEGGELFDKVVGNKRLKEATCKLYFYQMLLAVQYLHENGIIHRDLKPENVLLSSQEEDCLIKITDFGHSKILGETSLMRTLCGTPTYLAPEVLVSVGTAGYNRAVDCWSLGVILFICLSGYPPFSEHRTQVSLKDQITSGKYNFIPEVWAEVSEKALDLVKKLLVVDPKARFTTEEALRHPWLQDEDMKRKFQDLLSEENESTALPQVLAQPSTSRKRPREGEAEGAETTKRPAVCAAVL
UniProt P41240: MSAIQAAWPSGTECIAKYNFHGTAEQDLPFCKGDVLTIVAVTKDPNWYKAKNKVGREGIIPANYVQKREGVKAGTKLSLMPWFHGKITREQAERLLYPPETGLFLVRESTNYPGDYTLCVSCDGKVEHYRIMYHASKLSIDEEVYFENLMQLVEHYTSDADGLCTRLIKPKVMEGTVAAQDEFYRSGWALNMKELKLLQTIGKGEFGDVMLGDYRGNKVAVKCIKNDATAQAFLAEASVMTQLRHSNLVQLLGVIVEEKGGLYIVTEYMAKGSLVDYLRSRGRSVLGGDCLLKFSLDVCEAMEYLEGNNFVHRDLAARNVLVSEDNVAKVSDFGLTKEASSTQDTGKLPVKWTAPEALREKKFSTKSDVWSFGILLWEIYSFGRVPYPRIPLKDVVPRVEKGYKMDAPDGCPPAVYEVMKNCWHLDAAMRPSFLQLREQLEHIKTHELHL

How the values were obtained:
Assay in all cases: number of time points (of 5) at which kinase-Nluc abundance scored as decreased, DMSO-normalised (count); higher = more persistent destabilization
Settings in all cases: K562; 2-18 h
[1] = target: ALK (UniProt Q9UM73)
[2] = target: ARAF (UniProt P10398)
[3] = target: AURKA (UniProt O14965)
[4] = target: AURKB (UniProt Q96GD4)
[5] = target: AURKC (UniProt Q9UQB9)
[6] = target: BLK (UniProt P51451)
[7] = target: BMX (UniProt P51813)
[8] = target: BRAF (UniProt P15056)
[9] = tested on: BRAF_V600E
[10] = target: BTK (UniProt Q06187)
[11] = target: CAMK2A (UniProt Q9UQM7)
[12] = target: CAMK2G (UniProt Q13555)
[13] = target: CDK10 (UniProt Q15131)
[14] = target: CDK2 (UniProt P24941)
[15] = target: CDK3 (UniProt Q00526)
[16] = target: CDK5 (UniProt Q00535)
[17] = target: CDK6 (UniProt Q00534)
[18] = target: CHEK2 (UniProt O96017)
[19] = target: CSF1R (UniProt P07333)
[20] = target: CSK (UniProt P41240)

Measured: number of time points

CC(C)Cn1cc(C#N)c2cc(Oc3ccc(NC(=O)[C@@H]4CCCN4)cc3)ccc21 (10 µM)
0: all assays above

CC(C)(C)S(=O)(=O)c1cc2c(Nc3ccc4scnc4c3)ccnc2cc1OCCOCCOCCOCCOCC(=O)Nc1cccc2c1CN(C1CCC(=O)NC1=O)C2=O (stereo not given) [PROTAC RIPK degrader-6] (10 µM)
0: all assays above

C=C[C@H]1[C@H](O[C@@H]2O[C@H](CO)[C@@H](O)[C@H](O)[C@H]2O)OC=C(C(=O)OC)[C@H]1CCOC(=O)c1cc(O)c(O)c(O)c1 [Cornuside] (10 µM)
0: all assays above

C=CCN(/C=C1/C(=O)O[C@H](COC)[C@@]2(C)C1=C(O)C(=O)C1=C2[C@H](OC(C)=O)C[C@]2(C)C(=O)CC[C@@H]12)CC=C [Sonolisib] (2.5 µM)
3: [3]
1: [6] | [8] | [9]
0: all other assays above

CS(=O)(=O)N1CCN(Cc2cn3cc(-c4cnc(N)nc4)nc(N4CCOCC4)c3n2)CC1 (10 µM)
1: [17]
4: [3] | [7]
3: [8]
2: [4]
0: all other assays above

CS(=O)(=O)N1CCc2c(-c3cnc(N)nc3)nc(N3CCOCC3)nc21 (10 µM)
1: [19]
0: all other assays above

O=C(c1ccc(NS(=O)(=O)c2cccc3cccnc23)cc1)N1CCN(CC2CC2)CC1 [Mitapivat] (10 µM)
0: all assays above

NC(=O)c1nc(-c2c(F)cccc2Cl)oc1Nc1ccc(C(=O)N2CCOCC2)cc1 (10 µM)
0: all assays above

Cn1c(=O)c(Oc2ccc(F)cc2F)cc2cnc(NC(CCO)CCO)nc21 [Pamapimod] (10 µM)
0: all assays above

C[C@]1(O)C[C@@](N)(c2ccc(-c3nc4n(c3-c3ccccc3)COc3ccncc3-4)cc2)C1 [TAS-117 (hydrochloride)] (10 µM)
0: all assays above

Cc1ccc(-c2csc(Cn3nc(CC4OCCCO4)c4ccccc4c3=O)n2)cc1 (10 µM)
0: all assays above

O=c1cc(-c2ccc(O)cc2)oc2cc(O)c([C@@H]3O[C@H](CO)[C@@H](O)[C@H](O)[C@H]3O)c(O)c12 [Isovitexin] (10 µM)
0: all assays above

Nc1n[nH]c(N)c1N=Nc1ccc(O)cc1 (10 µM)
0: all assays above

C1=N/C2=N/c3ccc(OCCN4CCCC4)c(c3)COC/C=C/COCc3cccc(c3)C(=C1)N2 [Pacritinib] (2.5 µM)
4: [7]
0: all other assays above

C[C@@]12CCc3occc3[C@H]1CC[C@@]13C[C@@H](CC[C@H]12)[C@@](O)(CO)C3 [Cafestol] (10 µM)
0: all assays above

Cc1cc(/C=C2\CC/C(=C\c3cc(C)c(O)c(C)c3)C2=O)cc(C)c1O [Pentagamavunon-1] (2.5 µM)
1: [1]
0: all other assays above

COc1ccc(S(=O)(=O)N(CCO)c2ccccc2CN(C)CC=Cc2ccc(Cl)cc2)cc1 (2.5 µM)
0: all assays above

COc1ccc(-c2cnc3c(-c4cccc5ncccc45)cnn3c2)cc1 (10 µM)
0: all assays above

COc1ccc(C(=O)c2cn(C(C)C)c3ncnc(N)c23)cc1NC(=O)Nc1ccc(Cl)cc1Cl (10 µM)
2: [14]
5: [8]
4: [17]
1: [3] | [6]
0: all other assays above

OCCC#Cc1nc(-c2ccc(F)cc2)c(-c2ccncc2)n1CCCc1ccccc1 (2.5 µM)
0: all assays above

N#C/C(=C\c1ccc[nH]1)c1ccc(Cl)c(Cl)c1 (2.5 µM)
0: all assays above

CC(C)=CCC/C(C)=C/CC/C(C)=C/CSc1ccccc1C(=O)O [Salirasib] (10 µM)
3: [17]
0: all other assays above

CCc1ccc(NC(=O)Nc2ccccc2)cc1 (10 µM)
0: all assays above

C[C@H]1CNC(=O)c2cnn3ccc(nc23)N[C@H](C)c2cc(F)ccc2O1 [Repotrectinib] (2.5 µM)
1: [3] | [6] | [7] | [8] | [13]
2: [9] | [18]
0: all other assays above

Quoted from the listing (8 entries):
C1=N/C2=N/c3ccc(OCCN4CCCC4)c(c3)COC/C=C/COCc3cccc(c3)C(=C1)N2 [Pacritinib] (2.5 µM)
4: [7]
0: all other assays above

C[C@@]12CCc3occc3[C@H]1CC[C@@]13C[C@@H](CC[C@H]12)[C@@](O)(CO)C3 [Cafestol] (10 µM)
0: all assays above

Cc1cc(/C=C2\CC/C(=C\c3cc(C)c(O)c(C)c3)C2=O)cc(C)c1O [Pentagamavunon-1] (2.5 µM)
1: [1]
0: all other assays above

COc1ccc(S(=O)(=O)N(CCO)c2ccccc2CN(C)CC=Cc2ccc(Cl)cc2)cc1 (2.5 µM)
0: all assays above

COc1ccc(-c2cnc3c(-c4cccc5ncccc45)cnn3c2)cc1 (10 µM)
0: all assays above

COc1ccc(C(=O)c2cn(C(C)C)c3ncnc(N)c23)cc1NC(=O)Nc1ccc(Cl)cc1Cl (10 µM)
2: [14]
5: [8]
4: [17]
1: [3] | [6]
0: all other assays above

OCCC#Cc1nc(-c2ccc(F)cc2)c(-c2ccncc2)n1CCCc1ccccc1 (2.5 µM)
0: all assays above

N#C/C(=C\c1ccc[nH]1)c1ccc(Cl)c(Cl)c1 (2.5 µM)
0: all assays above

Remaining list, next part.

O=C(Nc1nc2cccc(-c3ccc(CN4CCS(=O)(=O)CC4)cc3)n2n1)C1CC1 [Filgotinib] (2.5 µM)
0: all assays above

CCC(=O)N1CC[C@H](Nc2ncnc3c2CN(c2cnc(OC)c(C(F)(F)F)c2)CC3)C1 [Leniolisib] (10 µM)
0: all assays above

O=C1C(=Cc2ccc(O)c(O)c2)Oc2ccccc21 (2.5 µM)
0: all assays above
